These are yes or no findings as the source states them, for the method shown. In cells and extracts the contact can be indirect. Binding calls can cover weak binding; strength is not graded here.
Target: circulating thrombomodulin in human plasma (human (endogenous in plasma)) (UniProt P07204)
Test: co-IP

The chains behind the UniProt entries cited, without tags or fusion partners. Where a name states a change or a piece, a line headed by the entry shows the natural chain unless it says otherwise. Residues count along the entry.
UniProt P07204: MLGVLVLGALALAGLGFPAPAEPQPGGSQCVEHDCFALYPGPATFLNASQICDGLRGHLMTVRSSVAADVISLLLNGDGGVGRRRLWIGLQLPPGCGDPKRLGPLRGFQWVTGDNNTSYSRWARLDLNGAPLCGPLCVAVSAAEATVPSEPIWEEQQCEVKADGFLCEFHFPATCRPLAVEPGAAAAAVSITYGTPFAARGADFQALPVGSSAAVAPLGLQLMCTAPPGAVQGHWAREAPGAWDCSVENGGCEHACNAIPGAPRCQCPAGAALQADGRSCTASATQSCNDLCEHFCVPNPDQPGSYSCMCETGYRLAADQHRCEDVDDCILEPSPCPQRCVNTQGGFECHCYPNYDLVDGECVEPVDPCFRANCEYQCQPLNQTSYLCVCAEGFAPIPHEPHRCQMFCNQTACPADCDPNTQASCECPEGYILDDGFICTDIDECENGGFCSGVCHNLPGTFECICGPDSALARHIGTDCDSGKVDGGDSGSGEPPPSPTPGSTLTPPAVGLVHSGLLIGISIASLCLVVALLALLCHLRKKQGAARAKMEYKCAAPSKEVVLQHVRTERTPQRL
UniProt O15123, residues 19-496: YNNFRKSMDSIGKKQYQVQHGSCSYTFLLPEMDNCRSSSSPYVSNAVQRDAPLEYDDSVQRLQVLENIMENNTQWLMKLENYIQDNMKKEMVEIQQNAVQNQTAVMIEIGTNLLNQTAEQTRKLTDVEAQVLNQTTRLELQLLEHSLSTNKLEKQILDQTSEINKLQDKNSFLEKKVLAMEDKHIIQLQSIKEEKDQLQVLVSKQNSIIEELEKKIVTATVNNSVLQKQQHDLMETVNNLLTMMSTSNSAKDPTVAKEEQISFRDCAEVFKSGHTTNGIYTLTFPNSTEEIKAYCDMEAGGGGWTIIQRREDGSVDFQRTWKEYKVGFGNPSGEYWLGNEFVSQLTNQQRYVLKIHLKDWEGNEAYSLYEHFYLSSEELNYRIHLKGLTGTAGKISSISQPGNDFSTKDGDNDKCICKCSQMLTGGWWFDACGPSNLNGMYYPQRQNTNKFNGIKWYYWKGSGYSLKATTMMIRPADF

Substance: Angiopoietin-2 (ANGPT2), circulating in human plasma (from UniProt O15123 19-496)
- binding: binds

From doi:10.1101/2021.01.13.21249429
